Measured values: publication PMC6021170
Changes are numbered by the printed parent chain. Results are given in words; binding and its absence hold for the method and conditions named. Binding seen in cells or lysates may run through a third protein. A yes stands for co-enrichment or nearness to the bait. Other partners may have been found.

Protein sequences, listed by entry. Tags and fused reporters are not part of them. Residues count along the entry.
UniProt P11021, residues 19-654: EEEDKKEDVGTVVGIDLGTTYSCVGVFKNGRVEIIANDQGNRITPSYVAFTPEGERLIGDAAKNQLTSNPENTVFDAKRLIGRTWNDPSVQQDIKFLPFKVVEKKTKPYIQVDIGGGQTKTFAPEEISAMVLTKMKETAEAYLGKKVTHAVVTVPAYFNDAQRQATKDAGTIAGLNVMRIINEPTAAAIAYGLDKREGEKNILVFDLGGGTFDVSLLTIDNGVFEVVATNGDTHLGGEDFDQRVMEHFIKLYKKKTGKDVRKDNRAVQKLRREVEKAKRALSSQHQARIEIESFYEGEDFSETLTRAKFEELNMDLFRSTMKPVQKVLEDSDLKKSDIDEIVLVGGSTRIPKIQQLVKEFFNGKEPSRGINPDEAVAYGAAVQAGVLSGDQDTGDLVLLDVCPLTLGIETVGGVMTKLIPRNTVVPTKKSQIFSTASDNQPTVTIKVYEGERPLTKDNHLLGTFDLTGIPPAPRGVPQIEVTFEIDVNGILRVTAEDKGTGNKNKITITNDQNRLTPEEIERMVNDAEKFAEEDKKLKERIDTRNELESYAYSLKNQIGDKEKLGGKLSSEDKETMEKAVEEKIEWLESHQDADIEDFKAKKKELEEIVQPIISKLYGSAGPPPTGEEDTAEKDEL
UniProt P30101, residues 25-505: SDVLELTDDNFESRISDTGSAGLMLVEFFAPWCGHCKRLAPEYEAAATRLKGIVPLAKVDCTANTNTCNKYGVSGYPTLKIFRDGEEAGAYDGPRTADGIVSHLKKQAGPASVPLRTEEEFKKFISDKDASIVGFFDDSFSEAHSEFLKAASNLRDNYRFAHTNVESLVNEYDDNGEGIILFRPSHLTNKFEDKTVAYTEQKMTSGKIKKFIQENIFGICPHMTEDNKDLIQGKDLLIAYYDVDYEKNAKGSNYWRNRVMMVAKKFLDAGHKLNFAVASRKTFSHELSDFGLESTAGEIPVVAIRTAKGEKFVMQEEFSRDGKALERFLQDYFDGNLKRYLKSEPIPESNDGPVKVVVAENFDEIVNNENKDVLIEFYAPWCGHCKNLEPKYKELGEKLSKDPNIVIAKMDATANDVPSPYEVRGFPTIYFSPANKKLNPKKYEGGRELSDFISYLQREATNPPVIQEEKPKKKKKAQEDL
UniProt P27824, residues 21-592: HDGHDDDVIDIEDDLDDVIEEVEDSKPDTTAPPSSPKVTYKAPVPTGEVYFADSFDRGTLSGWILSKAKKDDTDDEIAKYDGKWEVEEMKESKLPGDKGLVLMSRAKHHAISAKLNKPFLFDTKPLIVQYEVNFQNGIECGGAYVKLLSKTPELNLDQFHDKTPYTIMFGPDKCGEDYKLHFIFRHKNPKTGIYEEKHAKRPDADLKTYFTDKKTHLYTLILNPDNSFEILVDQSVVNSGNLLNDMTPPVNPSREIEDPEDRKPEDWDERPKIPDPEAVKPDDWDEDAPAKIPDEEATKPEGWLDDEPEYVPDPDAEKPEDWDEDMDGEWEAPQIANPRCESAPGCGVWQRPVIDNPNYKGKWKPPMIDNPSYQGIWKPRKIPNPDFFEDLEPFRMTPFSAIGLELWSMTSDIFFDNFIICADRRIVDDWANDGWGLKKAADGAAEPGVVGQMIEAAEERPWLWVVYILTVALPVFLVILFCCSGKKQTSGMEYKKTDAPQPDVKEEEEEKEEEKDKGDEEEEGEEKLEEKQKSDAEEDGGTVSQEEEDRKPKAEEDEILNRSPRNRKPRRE

Experiments:
human corin WT (human) = target: T1, human corin WT (human) (UniProt Q9Y5Q5); test: affinity purification with mass spectrometry; HEK293 cells expressing corin treated with the cross-linker DSP (0.8 mg/mL, 4°C, 30 min, stopped with 0.2 M glycine); lysates immunoprecipitated for corin, SDS-PAGE, silver-stained gels analysed by liquid chromatography-mass spectrum
T1 sequence: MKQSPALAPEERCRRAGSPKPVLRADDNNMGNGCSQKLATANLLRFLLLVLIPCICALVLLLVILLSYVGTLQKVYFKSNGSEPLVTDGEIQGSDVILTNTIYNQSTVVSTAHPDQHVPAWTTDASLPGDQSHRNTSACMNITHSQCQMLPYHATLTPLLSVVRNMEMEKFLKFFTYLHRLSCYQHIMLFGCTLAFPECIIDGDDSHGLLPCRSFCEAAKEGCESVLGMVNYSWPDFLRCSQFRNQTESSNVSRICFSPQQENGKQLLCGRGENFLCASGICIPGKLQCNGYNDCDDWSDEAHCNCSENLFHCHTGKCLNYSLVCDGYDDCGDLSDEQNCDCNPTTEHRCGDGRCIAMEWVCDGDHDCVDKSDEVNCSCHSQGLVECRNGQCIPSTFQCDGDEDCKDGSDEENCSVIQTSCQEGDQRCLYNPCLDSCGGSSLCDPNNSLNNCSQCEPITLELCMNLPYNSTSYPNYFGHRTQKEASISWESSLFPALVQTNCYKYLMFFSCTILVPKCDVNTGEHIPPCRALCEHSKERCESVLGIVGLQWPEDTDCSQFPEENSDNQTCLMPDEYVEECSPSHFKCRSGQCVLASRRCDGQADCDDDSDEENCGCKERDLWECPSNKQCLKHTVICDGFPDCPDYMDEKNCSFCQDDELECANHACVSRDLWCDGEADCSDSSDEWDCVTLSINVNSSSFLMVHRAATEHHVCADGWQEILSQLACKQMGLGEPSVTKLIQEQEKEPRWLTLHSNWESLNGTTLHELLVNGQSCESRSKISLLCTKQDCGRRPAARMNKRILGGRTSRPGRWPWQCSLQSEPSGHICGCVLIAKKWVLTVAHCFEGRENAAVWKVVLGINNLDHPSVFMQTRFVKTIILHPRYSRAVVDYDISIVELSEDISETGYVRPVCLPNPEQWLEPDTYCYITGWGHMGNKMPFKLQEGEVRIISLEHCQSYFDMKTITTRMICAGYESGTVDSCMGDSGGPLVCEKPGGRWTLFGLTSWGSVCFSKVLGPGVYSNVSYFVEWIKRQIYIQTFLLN

[1] = target: T2, human corin mutant N1022Q (human) (UniProt Q9Y5Q5); test: as above
T2 sequence: T1 sequence with N1022Q

BiP (binding immunoglobulin protein) (from UniProt P11021 19-654)
binding (human corin WT (human)): binds | binding [1]: binds

PDI family member A3 (from UniProt P30101 25-505)
binding (human corin WT (human)): binds | binding [1]: binds

calnexin (from UniProt P27824 21-592)
binding (human corin WT (human)): binds | binding [1]: binds

calreticulin (from UniProt P27797 18-417)
binding (human corin WT (human)): binds | binding [1]: binds

B1: PDI family member A4 (protein, UniProt P13667 21-645)
chain: VAGAEGPDEDSSNRENAIEDEEEEEEEDDDEEEDDLEVKEENGVLVLNDANFDNFVADKDTVLLEFYAPWCGHCKQFAPEYEKIANILKDKDPPIPVAKIDATSASVLASRFDVSGYPTIKILKKGQAVDYEGSRTQEEIVAKVREVSQPDWTPPPEVTLVLTKENFDEVVNDADIILVEFYAPWCGHCKKLAPEYEKAAKELSKRSPPIPLAKVDATAETDLAKRFDVSGYPTLKIFRKGRPYDYNGPREKYGIVDYMIEQSGPPSKEILTLKQVQEFLKDGDDVIIIGVFKGESDPAYQQYQDAANNLREDYKFHHTFSTEIAKFLKVSQGQLVVMQPEKFQSKYEPRSHMMDVQGSTQDSAIKDFVLKYALPLVGHRKVSNDAKRYTRRPLVVVYYSVDFSFDYRAATQFWRSKVLEVAKDFPEYTFAIADEEDYAGEVKDLGLSESGEDVNAAILDESGKKFAMEPEEFDSDTLREFVTAFKKGKLKPVIKSQPVPKNNKGPVKVVVGKTFDSIVMDPKKDVLIEFYAPWCGHCKQLEPVYNSLAKKYKGQKGLVIAKMDATANDVPSDRYKVEGFPTIYFAPSGDKKNPVKFEGGDRDLEHLSKFIEEHATKLSRTKEEL
binding (human corin WT (human)): binds | binding [1]: binds
